## Primary screen of a compound library

Sequences of proteins named here, by UniProt entry; tags and fusion partners are left off.
UniProt E9BF75, entry or part of it: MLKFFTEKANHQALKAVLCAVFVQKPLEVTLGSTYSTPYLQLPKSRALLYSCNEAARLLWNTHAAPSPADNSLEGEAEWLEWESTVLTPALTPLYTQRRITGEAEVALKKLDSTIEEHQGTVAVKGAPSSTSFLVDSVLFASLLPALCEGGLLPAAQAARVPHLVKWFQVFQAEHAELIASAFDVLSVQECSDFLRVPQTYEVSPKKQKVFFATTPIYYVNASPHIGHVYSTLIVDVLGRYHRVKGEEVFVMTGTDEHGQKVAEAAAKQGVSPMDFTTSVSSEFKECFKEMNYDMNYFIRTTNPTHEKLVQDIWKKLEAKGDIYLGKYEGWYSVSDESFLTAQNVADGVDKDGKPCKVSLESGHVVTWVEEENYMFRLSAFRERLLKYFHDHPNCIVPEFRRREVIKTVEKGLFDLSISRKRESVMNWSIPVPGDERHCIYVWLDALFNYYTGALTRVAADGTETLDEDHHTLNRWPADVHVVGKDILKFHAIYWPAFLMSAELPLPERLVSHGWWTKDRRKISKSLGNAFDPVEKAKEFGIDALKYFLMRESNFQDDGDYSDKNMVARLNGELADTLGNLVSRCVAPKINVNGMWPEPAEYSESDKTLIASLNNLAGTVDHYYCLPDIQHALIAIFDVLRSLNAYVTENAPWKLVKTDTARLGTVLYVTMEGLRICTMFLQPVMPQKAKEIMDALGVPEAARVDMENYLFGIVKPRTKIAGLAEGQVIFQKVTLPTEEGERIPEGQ

The values are deposited in ChEMBL (CHEMBL3988442, “University of Dundee, Small-Polar-MMV Screening Library” (2021)).

A: 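Primary screen of methionyl-tRNA synthetase; the read-out is not stated. Target: Methionyl-tRNA synthetase (putative), Leishmania donovani (UniProt E9BF75). The test concentration is not given. The values are filed as inhibition. About 68,000 compounds were tested under these conditions; 0.035% (about 24) showed 50% or more at least once.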
B: 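Assay on Mycobacterium tuberculosis, filed only as a heat shock assay from Cornell; the read-out is not stated. The concentration is filed as 10 mM, unlikely as a test dose, so the dose is not known. The record gives no direction; compounds that gave an IC50 in retests scored well above the rest, so higher reads as stronger inhibition. Of about 69,000 compounds tested this way, about 930 (1.4%) reached 50% or more in at least one test.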

Results are percentages, as filed. The record does not define 0% and 100%; most values in the screen are far below 50% and negative numbers occur (in some assays of this library far below -100). This is an unselected part of the compounds tested.

{"compound": "Cl.N#Cc1cccnc1OC1CCNCC1", "B": -9.035}
{"compound": "CC(C)(C)c1nc(CNC2CCN(S(C)(=O)=O)CC2)cs1", "A": 11.17, "B": -19.26}
{"compound": "O=C(NCCN1CCCC1)c1cc2c(s1)CCN2c1ncccn1", "A": 16.1, "B": 29.58}
{"compound": "CC(C)c1nc(CN2CCN(C(=O)OC(C)(C)C)C(C)C2)no1", "stereo": "stereo not given", "A": 6.983, "B": -32.14}
{"compound": "CCCN1CCCN(S(=O)(=O)c2cnc3onc(C)c3c2)CC1", "A": 17.69, "B": 1.827}
{"compound": "CN(C)[C@H]1CCN(c2nc(C(C)(C)C)nc3c2cnn3C)C1", "A": 15.97, "B": -3.718}
{"compound": "COCCOc1cc(C(=O)N2CC(C)c3ccccc32)ccn1", "stereo": "stereo not given", "A": 7.796, "B": -7.607}
{"compound": "O=C(NC1CC1)C1=CC2(CCN(CCO)CC2)c2ccccc21.O=C(O)C(F)(F)F", "B": -1.766}
{"compound": "O=C(c1cccnc1O)N1CCCC2(C=Cc3ccccc3O2)CC1", "stereo": "stereo not given", "A": 11.57, "B": 13.09}
{"compound": "COc1ccccc1S(=O)(=O)CCOC(C)C", "A": 12.57, "B": 5.796}
{"compound": "O=C1CC(c2ccncc2)C2(CCN(CCO)CC2)N1", "stereo": "stereo not given", "A": 2.146, "B": 6.119}
{"compound": "Cc1ccc(C(=O)NC2CCN(CC(=O)N(C)c3ccccc3)CC2)o1", "A": 24, "B": -14.06}
{"compound": "CCn1cnnc1C1CCN(C(=O)c2ccccc2OC)CC1", "A": 13.36, "B": -15.14}
{"compound": "CCOc1ccccc1C(=O)N1CC(=O)N(C2CCC2)CC(O)C1", "stereo": "stereo not given", "A": 16.71, "B": 30.67}
{"compound": "CC(C)c1noc(CCCC(=O)N2CCN(S(C)(=O)=O)CC2)n1", "A": 22.91, "B": -10.04}
{"compound": "COCCN1CCN(CCS(=O)(=O)C(F)(F)F)CC1C", "stereo": "stereo not given", "A": 14.29, "B": 105.5}
{"compound": "Fc1ccc(-c2nc(CN3CCn4c(nnc4C4CC4)C3)co2)cc1", "A": 13.01, "B": -13.4}
{"compound": "Cc1ccc(S(N)(=O)=O)cc1C(=O)N1CCc2c(ncnc2N(C)C)C1", "A": 11.76, "B": -14.65}
{"compound": "CC(C)N1CC2(CCCN(c3ccccn3)C2)CCC1=O", "stereo": "stereo not given", "A": 19.24, "B": -24.13}
{"compound": "CC(C)N(Cc1nc(-c2cccs2)no1)CC1CCC(=O)N1", "stereo": "stereo not given", "A": 4.092, "B": 2.405}
{"compound": "CN1C(=O)CC(c2ccccc2)C12CCN(c1ncc(F)cn1)CC2", "stereo": "stereo not given", "A": 19.05, "B": 19.8}
{"compound": "Cc1cc(NC(C)c2nncn2C2CCCC2)n2nc(C)c(C)c2n1", "stereo": "stereo not given", "A": 14.72, "B": 35.67}
{"compound": "CN(C)c1ncc(CN2CCC(c3nnsc3S(C)(=O)=O)CC2)cn1", "A": 11.99, "B": 9.729}
{"compound": "O=C(CCC1CCN(Cc2ncc[nH]2)CC1)Nc1ccccc1Cl", "A": 3.704, "B": -8.294}
{"compound": "Cc1nn(C)c(N(C)C)c1CNCc1nnc2n1CCCCC2.Cl", "B": 12.43}
{"compound": "C=C(C)COc1cccc(CNC(CC(C)C)c2ncnn2C)c1", "stereo": "stereo not given", "A": 12.04, "B": -19.47}
{"compound": "Cc1cnc(NC(=O)C(C)n2ccc(C(F)(F)F)n2)s1", "stereo": "stereo not given", "A": 22.66, "B": 20.56}
{"compound": "CC(C)NC(=O)[C@H](C)NC(=O)N1CCN(c2ccc(Cl)cc2)CC1", "A": 7.759, "B": -17.18}
{"compound": "CC(=O)N1CCC(NC(=O)c2cc(S(N)(=O)=O)ccc2C)CC1", "A": 17.76, "B": 0.1782}